Measured values as given in patent US20070078058A1, “Use of MCPP to inhibit tuber sprouting” (ACETO AGRICULTURAL CHEMICALS CORP., priority 2005, published 2007).

Experiment: Concentration analysis: amounts recovered on the whole potato
Conditions: approximately four months later
Description: Much better results were obtained with the spray applications compared to the thermal fog applications of MCPP, believed to be due to the fact that we established a higher concentration on the tuber via spray.
For example, for spray and thermal fog application, amounts recovered on the whole potato approximately four months later were as follows: MCPP10 ppm applied via thermal fog=0.038 ppm MCPP10 ppm applied via liquid spray=6.3 ppm

Cc1cc(Cl)ccc1OC(C)C(=O)O (centres unmarked) [MCPP, 2-(4-Chloro-2-methylphenoxy)propanoic acid]
amount recovered on the whole potato (10 ppm applied via liquid spray): 6.3 ppm | amount recovered on the whole potato (10 ppm applied via thermal fog): 0.038 ppm
